From US11344634B2, “Activity based probe and uses thereof for imaging” (Yissum Research Development Company of the Hebrew …, priority 2016, dated 2022)

Experiment: Detection level of contrast tags by dual energy micro-CT
Conditions: for minimal detected concentration: in water

Compound	HU at minimal detected concentration (Beam E 35 keV) [HU]	HU at minimal detected concentration (Beam E 85 keV) [HU]	minimal detected concentration (Beam E 35 keV) [mg/mL]	minimal detected concentration (Beam E 85 keV) [mg/mL]
[Gd] [Gadolinium]	17 ± 3.5	38 ± 8.8	0.05	0.1
Iodine	10 ± 3.5	15 ± 8.8	0.05	0.5
